Source: PubChem BioAssay AID1487 (National Center for Advancing Translational Sciences (NCATS), 2009)
Where “and” joins values, the source holds several entries; their conditions need not be identical. Identical values can stand only once. The list shows a part of the results. These are further read-outs of the screen, such as a control signal, another cell line or another target. No call is given for them. The list favours compounds with an active or inconclusive main result. The note in brackets gives the kind of curve behind each potency; many fits are weak.

Assay: qHTS Assay for Modulators of Lamin A Splicing
Settings: HeLa LMNA splicing GFP/RFP minigene ratio, 48 h
Method in brief: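 S3 HeLa stable clones carrying a lamin A-EGFP splicing minigene plus DsRed2 were seeded at 600 cells/well in Opti-MEM with 2% FBS, pin-dosed and incubated 48 h at 37°C. Acumen cytometry (488 nm) gave the GFP/RFP total-intensity ratio.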

[1] = measured here: RFP viability control channel
[2] = measured here: GFP splicing reporter channel

Row | Compound | AC50 [1] | AC50 [2]
1 | COc1ccccc1Cn1c(CNS(=O)(=O)c2c(C)cc(C)cc2C)nc2cccnc21 | 0.708 µM [rising, full curve, poor fit] | –
2 | Cc1ccc(C2=NN(Cc3nnc(-c4ccccc4)o3)C(=O)SC2)cc1 | 31.6 µM [rising, single point] | –
3 | O=C(Nc1cccc(Cl)c1)Nc1ccccc1NS(=O)(=O)c1cccs1 | 22.4 µM [rising, single point] | 11.2 µM [rising, partial curve, poor fit]
4 | CN(C(=O)CSc1nc2ccc(NC(=O)c3ccc(F)cc3)cc2s1)c1ccccc1 | – | 25.1 µM [falling, single point]
5 | O=C(CCCN1C(=O)/C(=C/c2ccccc2)SC1=S)Nc1ccc(O)cc1 | 3.98 µM [rising, full curve, poor fit] | –
6 | CCC(=O)Nc1ccccc1Sc1ncnc2scc(-c3ccccc3)c12 | 12.6 µM [falling, partial curve] | 0.112 µM [falling, full curve, poor fit]
7 | On1nnc2c3ccccc3c3ccccc3c21 | 2.82 µM [falling, full curve, poor fit] | 6.31 µM [falling, full curve, poor fit]
8 | COc1ccc(C(=O)Nc2cccnc2)cc1OC | 11.2 µM [rising, partial curve, poor fit] | 10 µM [rising, partial curve, poor fit]
9 | CN(C)C(=S)c1ccc2ccccc2n1 | 15.8 µM [falling, partial curve] | –
10 | O=c1c(-c2ccc(O)cc2)coc2cc(O)cc(O)c12 | 15.8 µM [rising, partial curve] and 15.8 µM [rising, single point] | 35.5 µM [falling, single point] and 15.8 µM [falling, partial curve]
11 | CCCCC(=O)NC(c1ccc([N+](=O)[O-])cc1)c1c(O)ccc2ccccc12 (stereo not given) | 12.6 µM [rising, partial curve, poor fit] | –
12 | COc1cc(NC(=O)c2ccc(C)cc2)c(OC)cc1NC(=O)CN1CCCCC1 | 11.2 µM [rising, partial curve] | –
13 | CCOC(=O)Nc1ccc2c(c1)N(C(=O)CCN1CCOCC1)c1ccccc1S2 | 10 µM [rising, single point] | 0.282 µM [falling, full curve]
14 | CC(=O)c1ccc(NC(=O)CN2C(=O)/C(=C/C=C/c3ccccc3)SC2=S)cc1 | 14.1 µM [rising, single point] | 11.2 µM [rising, partial curve, poor fit]
15 | CCNC(=O)NC(=O)C(C)OC(=O)C1CCN(S(=O)(=O)c2ccccc2C(=O)OC)CC1 (stereo not given) | 0.891 µM [falling, full curve, poor fit] | –
16 | CCn1cc(C(=O)Nc2ccc(C)c([N+](=O)[O-])c2)cn1 | 8.91 µM [rising, partial curve, poor fit] | 5.62 µM [rising, partial curve]
17 | CCCOc1ccc(/C(O)=C2/C(=O)C(=O)N(CCOC)C2c2cccnc2)cc1 (stereo not given) | – | 0.0398 µM [rising, full curve, poor fit]
18 | Cc1cc(Cl)cc(C)c1OCCCCn1ccnc1 | 12.6 µM [rising, single point] | 10 µM [rising, single point]
19 | CCOc1ccc(N(CC(=O)Nc2cccc(OC)c2)S(=O)(=O)c2c(C)noc2C)cc1 | 12.6 µM [rising, partial curve] | –

Row | Compound | AC50 [1] | AC50 [2]
20 | C=C1CCC2C(C)(C)[C@H](O)CC[C@@]2(C)[C@@H]1COc1cc(=O)oc2ccccc12 (stereo not given in full) | 10 µM [rising, single point] | –
21 | CC(C)NC(=O)C1CCN(C2CCN(Cc3ccc4cccc(F)c4n3)CC2)CC1 | – | 0.0398 µM [rising, full curve]
22 | CCOC(=O)c1sc(N)c(C#N)c1CSc1nc2ccc(OCC)cc2[nH]1 | 5.01 µM [rising, partial curve] | 12.6 µM [rising, single point]
23 | COc1ccc(S(=O)(=O)Nc2ccc(O)c(Sc3nc4ccccc4s3)c2)cc1 | 25.1 µM [rising, single point] | –
24 | Nc1c(O)ccc2c1C(=O)c1ccccc1C2=O | 14.1 µM [rising, partial curve, poor fit] | –
25 | Cc1ccc(C(=O)Nc2ncc(Cc3ccccc3)s2)o1 | 14.1 µM [rising, partial curve] | 31.6 µM [rising, single point]
26 | CN(C)S(=O)(=O)c1ccc(NC(=O)CN2CCC(Cc3ccccc3)CC2)cc1 | – | 25.1 µM [falling, single point]
27 | Cn1c(CNc2ccc(Cl)cc2)nc2ccccc21 | 31.6 µM [rising, single point] | –
28 | O=C(COc1ncnc2scc(-c3ccccc3)c12)NC1CCCc2ccccc21 (stereo not given) | 12.6 µM [rising, single point] | 14.1 µM [rising, partial curve]
29 | COc1cccc2[nH]c3c(N4CCN(Cc5ccc6c(c5)OCO6)CC4)ncnc3c12 | 22.4 µM [rising, single point] | –
30 | O=C(Nc1nc(-c2cccs2)c(C(=O)C(F)(F)F)s1)c1ccccc1 | 12.6 µM [rising, partial curve, poor fit] | 28.2 µM [rising, single point]
31 | COc1ccc(NC(=O)/C=C/c2ccco2)cn1 | – | 0.316 µM [falling, full curve, poor fit]
32 | Cc1cccc(N2Cc3ccccc3C2=NC(=O)c2ccc(Cl)nc2)c1 | 0.316 µM [rising, partial curve] | –
33 | CC(=O)NC1=C(NC2CCS(=O)(=O)C2)C(=O)c2ccccc2C1=O (stereo not given) | 20 µM [rising, partial curve, poor fit] | –
34 | COc1ccc(-n2c(CNc3ccc(C)cc3)nnc2SCc2ccccc2)cc1 | 31.6 µM [rising, partial curve] | –
35 | Cc1csc(NC(=O)CSc2ccc(-c3ccc(F)cc3)nn2)n1 | 35.5 µM [falling, single point] | –
36 | CN(C)CCN(C)Cc1ccccc1Sc1cccc2ccccc12 | 17.8 µM [rising, single point] | 15.8 µM [rising, single point]
37 | CCOC(=O)C1CCCN(CC(=O)Nc2c(C(=O)OC)[nH]c3ccc(C)cc23)C1 (stereo not given) | 35.5 µM [rising, single point] | –
38 | CCCCN(CC(=O)NCc1ccc(Cl)cc1)S(=O)(=O)c1ccc2c(c1)OCCO2 | 12.6 µM [rising, single point] | –

Row | Compound | AC50 [1] | AC50 [2]
39 | Cc1c(NC(=O)Cc2noc3ccccc23)cccc1[N+](=O)[O-] | – | 0.0891 µM [rising, full curve, poor fit]
40 | COc1cc(-c2cc(C(=O)Nc3ccc(S(=O)(=O)NCc4ccco4)cc3)c3ccccc3n2)cc(OC)c1OC | – | 0.01 µM [falling, full curve, poor fit]
41 | O=C(CSc1ccc(-c2ccccn2)nn1)N1CCc2ccccc21 | – | 12.6 µM [rising, single point]
42 | Cc1cc(C)cc(Oc2nc3c(C)cccn3c(=O)c2/C=C(\C#N)C(=O)NC2CCS(=O)(=O)C2)c1 (stereo not given) | 35.5 µM [falling, single point] | 6.31 µM [falling, partial curve]
43 | Cc1ccc2nc(C)cc(Cl)c2c1 | 2.82 µM [falling, full curve, poor fit] | 0.0501 µM [falling, full curve, poor fit]
44 | COC(=O)N/N=C/c1cc(Cl)cc(Cl)c1OCc1ccccc1F | – | 15.8 µM [rising, single point]
45 | C=CCn1c(C(CC)CC(C)(C)O)n[nH]c1=S (stereo not given) | – | 0.0224 µM [rising, full curve, poor fit]
46 | CCOC(=O)c1cnc2ccccc2c1NCCO | – | 0.0398 µM [rising, full curve]
47 | Cc1sc(NC(=O)c2cccnc2)nc1-c1ccccc1 | 2.51 µM [falling, partial curve] | –
48 | NC(=O)c1cc(N)ccc1N1CCCCC1 | – | 1 µM [rising, full curve, poor fit]
49 | O=C(CCC(=O)Nc1cccc(Cl)c1)N/N=C/c1cc([N+](=O)[O-])ccc1O | 0.398 µM [falling, partial curve, poor fit] | 1.78 µM [falling, full curve]
50 | CCc1cc2c(=O)c(-c3nc4ccccc4n3C)c(C(C)C)oc2c(CN2CCN(C)CC2)c1O | 31.6 µM [rising, single point] | –
51 | COc1ccc(C(=O)N2CCCC(c3nc(-c4cccs4)no3)C2)cc1 (stereo not given) | 14.1 µM [rising, single point] | –
52 | O=C1c2cnc3ncnn3c2CC2c3ccccc3CCN12 (stereo not given) | 2 µM [rising, full curve, poor fit] | 3.55 µM [rising, partial curve]
53 | Cc1ccc(-c2csc(NC(=O)c3cccs3)n2)cc1 | 14.1 µM [rising, single point] | –
54 | Cc1cc(N2CCCCCC2)nc(-c2ccccc2O)n1 | 35.5 µM [rising, single point] | 35.5 µM [rising, single point]
55 | O=c1c2ccccc2nc(SCc2nc3ccccc3s2)n1Cc1ccco1 | 4.47 µM [rising, full curve] | –
56 | CC1CCCCN1C(=O)c1cc(-c2ccc(Cl)c(Cl)c2)on1 (stereo not given) | 12.6 µM [rising, partial curve] | –
